Reference: the supplement of paper PMC10849652
Some of the results follow.

Chains of the proteins cited; added tags and fusions are not shown. Lines headed by an entry give the natural chain unless they say otherwise; changes in a name come on top.
UniProt Q9ULV3: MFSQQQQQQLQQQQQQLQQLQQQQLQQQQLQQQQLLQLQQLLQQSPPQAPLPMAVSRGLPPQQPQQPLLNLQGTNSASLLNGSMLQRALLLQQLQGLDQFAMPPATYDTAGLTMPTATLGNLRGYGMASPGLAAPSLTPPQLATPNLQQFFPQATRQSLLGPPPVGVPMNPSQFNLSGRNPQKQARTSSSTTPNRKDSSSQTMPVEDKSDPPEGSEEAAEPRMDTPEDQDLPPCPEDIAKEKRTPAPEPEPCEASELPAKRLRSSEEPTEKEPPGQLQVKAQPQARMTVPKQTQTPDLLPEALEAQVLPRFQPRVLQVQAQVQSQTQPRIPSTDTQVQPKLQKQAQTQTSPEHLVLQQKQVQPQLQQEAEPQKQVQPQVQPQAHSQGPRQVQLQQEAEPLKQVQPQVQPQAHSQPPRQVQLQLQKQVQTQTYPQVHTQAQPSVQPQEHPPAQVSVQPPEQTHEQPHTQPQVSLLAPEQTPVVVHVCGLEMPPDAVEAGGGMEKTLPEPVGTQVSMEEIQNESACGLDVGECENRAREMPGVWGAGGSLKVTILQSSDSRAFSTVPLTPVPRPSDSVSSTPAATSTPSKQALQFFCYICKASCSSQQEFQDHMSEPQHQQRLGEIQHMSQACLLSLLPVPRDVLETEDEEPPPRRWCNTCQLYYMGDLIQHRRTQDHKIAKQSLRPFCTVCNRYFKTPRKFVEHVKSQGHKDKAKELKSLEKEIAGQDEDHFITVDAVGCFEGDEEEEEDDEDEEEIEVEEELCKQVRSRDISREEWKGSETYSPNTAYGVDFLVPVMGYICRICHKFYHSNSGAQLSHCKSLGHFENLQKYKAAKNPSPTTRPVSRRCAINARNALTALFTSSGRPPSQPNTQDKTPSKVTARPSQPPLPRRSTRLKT
UniProt O76071: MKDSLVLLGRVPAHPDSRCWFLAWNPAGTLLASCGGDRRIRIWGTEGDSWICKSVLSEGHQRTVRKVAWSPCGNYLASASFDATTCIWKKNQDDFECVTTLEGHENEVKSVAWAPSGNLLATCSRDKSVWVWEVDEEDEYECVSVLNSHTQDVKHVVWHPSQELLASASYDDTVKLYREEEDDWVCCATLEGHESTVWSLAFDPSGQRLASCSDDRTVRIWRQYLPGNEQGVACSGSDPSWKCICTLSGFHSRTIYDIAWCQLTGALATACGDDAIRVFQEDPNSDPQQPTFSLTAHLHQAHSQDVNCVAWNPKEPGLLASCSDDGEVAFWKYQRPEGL
UniProt P30085: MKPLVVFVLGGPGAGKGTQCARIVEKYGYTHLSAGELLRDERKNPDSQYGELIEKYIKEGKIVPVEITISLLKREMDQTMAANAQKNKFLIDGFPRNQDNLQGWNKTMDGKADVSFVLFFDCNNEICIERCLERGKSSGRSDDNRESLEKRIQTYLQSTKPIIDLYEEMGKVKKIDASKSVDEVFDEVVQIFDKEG
UniProt O14578, whole entry, looked up: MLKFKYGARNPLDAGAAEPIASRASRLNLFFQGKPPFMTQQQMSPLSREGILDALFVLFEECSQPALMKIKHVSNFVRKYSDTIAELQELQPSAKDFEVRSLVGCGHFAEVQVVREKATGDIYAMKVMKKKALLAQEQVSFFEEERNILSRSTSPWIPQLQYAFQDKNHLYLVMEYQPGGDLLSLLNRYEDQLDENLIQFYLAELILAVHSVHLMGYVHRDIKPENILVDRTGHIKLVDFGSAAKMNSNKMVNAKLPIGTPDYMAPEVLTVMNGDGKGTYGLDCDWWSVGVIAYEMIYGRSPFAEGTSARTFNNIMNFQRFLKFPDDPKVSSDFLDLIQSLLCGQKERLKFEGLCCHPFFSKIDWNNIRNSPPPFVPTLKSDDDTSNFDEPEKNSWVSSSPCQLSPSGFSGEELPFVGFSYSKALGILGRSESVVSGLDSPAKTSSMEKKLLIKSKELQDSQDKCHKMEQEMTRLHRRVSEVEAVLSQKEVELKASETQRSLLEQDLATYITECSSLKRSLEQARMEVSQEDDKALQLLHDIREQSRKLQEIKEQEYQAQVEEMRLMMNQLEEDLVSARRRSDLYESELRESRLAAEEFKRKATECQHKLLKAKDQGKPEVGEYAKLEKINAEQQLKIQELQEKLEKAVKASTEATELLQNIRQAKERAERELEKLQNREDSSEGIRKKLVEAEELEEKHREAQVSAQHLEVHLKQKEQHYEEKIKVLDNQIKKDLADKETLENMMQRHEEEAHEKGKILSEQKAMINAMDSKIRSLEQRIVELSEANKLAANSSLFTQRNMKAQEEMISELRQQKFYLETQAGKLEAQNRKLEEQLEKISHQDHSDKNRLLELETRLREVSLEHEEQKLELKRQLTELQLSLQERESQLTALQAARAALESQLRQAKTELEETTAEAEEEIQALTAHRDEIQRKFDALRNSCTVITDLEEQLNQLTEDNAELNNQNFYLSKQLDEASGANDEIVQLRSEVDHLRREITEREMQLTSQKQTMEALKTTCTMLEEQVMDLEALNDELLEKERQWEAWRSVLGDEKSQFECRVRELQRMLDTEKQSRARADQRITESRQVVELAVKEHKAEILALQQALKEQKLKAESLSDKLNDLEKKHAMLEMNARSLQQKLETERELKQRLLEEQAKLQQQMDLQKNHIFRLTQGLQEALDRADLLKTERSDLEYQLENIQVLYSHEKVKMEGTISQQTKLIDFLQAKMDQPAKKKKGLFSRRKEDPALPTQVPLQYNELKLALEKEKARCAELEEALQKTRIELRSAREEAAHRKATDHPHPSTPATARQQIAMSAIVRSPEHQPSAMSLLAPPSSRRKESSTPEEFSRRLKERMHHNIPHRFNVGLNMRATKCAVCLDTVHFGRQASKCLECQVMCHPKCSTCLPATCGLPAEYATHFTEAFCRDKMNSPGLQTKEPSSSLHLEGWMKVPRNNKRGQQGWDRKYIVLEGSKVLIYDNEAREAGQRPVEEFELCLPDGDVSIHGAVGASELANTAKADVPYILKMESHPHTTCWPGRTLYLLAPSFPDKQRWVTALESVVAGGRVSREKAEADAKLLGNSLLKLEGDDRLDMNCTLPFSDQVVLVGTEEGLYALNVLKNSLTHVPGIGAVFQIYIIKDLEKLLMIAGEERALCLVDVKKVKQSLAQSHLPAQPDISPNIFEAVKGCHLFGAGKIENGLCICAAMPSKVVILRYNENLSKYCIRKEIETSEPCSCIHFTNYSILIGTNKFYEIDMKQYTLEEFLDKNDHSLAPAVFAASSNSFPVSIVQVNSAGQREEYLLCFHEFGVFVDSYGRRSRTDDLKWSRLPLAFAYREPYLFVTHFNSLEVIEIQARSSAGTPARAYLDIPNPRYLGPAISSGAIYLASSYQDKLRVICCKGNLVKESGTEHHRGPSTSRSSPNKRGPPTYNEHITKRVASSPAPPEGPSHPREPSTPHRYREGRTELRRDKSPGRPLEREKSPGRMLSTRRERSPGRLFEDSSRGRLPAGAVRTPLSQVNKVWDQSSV
UniProt Q9Y3E7, whole entry, looked up: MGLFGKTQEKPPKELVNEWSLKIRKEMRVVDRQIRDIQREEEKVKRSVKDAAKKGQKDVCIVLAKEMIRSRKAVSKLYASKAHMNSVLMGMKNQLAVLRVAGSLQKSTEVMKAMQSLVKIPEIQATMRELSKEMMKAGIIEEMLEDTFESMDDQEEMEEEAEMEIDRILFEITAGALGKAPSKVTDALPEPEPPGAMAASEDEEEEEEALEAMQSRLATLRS
UniProt Q9UQN3, whole entry, looked up: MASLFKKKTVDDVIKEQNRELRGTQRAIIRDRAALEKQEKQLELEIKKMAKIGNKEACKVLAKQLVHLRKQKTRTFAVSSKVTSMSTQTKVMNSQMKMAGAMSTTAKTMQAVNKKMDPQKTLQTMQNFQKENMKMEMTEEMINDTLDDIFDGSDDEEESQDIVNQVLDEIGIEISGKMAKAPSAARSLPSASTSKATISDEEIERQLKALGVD
UniProt Q7LBR1: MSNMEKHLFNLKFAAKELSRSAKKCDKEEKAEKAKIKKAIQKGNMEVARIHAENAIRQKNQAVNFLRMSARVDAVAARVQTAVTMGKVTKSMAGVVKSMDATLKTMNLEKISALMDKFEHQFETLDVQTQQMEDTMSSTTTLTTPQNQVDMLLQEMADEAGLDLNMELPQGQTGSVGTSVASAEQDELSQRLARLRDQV
UniProt Q9H444: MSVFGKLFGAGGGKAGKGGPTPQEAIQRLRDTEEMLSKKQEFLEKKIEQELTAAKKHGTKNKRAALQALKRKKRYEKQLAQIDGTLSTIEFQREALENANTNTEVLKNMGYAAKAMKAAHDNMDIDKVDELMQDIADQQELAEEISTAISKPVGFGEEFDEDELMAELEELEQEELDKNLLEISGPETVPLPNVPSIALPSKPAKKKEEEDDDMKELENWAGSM
UniProt Q9Y3Y2: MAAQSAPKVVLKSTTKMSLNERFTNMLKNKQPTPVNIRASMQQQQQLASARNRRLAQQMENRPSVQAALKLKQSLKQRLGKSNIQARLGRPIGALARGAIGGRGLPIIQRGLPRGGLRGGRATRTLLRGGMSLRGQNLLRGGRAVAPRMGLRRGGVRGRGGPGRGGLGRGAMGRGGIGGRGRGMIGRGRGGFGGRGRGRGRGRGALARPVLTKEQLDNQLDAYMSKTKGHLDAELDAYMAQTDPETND
UniProt Q8TDI0: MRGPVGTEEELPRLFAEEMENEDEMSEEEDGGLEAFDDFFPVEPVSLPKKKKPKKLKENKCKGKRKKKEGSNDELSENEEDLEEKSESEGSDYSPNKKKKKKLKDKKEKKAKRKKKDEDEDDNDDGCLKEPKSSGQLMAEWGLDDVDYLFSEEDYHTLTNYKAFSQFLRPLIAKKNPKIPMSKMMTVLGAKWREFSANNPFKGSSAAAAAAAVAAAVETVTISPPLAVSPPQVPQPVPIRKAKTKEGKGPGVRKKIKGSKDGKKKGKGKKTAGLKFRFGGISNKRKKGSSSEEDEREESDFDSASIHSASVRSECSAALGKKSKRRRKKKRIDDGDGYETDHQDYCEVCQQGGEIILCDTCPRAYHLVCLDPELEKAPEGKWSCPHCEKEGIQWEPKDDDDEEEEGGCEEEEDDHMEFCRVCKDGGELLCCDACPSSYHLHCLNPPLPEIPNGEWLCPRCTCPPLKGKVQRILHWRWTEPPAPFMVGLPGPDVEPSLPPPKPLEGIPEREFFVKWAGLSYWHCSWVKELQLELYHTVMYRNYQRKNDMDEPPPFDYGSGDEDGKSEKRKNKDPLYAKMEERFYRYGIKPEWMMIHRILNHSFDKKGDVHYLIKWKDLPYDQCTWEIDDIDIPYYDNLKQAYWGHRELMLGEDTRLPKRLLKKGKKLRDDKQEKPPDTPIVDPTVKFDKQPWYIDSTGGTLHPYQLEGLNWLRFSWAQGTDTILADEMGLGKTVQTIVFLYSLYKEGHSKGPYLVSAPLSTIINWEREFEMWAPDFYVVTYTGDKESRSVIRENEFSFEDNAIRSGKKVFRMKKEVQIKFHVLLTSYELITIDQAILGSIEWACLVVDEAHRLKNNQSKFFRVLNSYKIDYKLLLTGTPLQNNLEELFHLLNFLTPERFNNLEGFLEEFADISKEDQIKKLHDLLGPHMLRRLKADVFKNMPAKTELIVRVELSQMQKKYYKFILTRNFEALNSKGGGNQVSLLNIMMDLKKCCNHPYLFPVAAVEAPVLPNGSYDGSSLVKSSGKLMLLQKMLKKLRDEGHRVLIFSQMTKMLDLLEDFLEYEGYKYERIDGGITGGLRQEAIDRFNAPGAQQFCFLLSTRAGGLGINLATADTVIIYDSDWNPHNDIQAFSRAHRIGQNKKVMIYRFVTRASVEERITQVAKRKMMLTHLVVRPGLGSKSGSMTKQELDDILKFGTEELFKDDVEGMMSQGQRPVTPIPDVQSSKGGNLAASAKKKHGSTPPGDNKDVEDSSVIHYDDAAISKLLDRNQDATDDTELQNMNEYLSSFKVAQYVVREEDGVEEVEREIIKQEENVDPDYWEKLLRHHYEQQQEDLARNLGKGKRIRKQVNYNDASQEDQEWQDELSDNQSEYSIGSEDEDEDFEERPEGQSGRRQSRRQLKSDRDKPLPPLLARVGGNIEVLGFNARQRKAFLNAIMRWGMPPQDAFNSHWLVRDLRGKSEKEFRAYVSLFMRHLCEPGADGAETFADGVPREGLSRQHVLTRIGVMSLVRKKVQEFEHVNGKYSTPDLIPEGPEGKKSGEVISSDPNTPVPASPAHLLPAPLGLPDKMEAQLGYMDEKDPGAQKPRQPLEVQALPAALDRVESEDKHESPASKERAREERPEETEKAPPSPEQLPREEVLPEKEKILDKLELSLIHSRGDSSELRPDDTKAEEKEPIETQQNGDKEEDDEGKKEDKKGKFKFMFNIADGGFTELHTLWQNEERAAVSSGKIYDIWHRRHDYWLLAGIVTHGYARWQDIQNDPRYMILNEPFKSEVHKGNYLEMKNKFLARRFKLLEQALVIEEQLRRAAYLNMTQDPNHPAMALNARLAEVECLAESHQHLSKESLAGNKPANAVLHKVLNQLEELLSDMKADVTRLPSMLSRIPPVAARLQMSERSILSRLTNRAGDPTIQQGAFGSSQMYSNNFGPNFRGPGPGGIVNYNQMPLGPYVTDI

Legend:
Experiment in all cases: log2 fold change, soluble protein after heating vs DMSO (PISA); higher = thermal stabilisation; K562 lysate, 10 uM; active = over 0.2 and 3.5 SD of the protein, either way, in both replicates (recomputed)
lapatinib = compound: CS(=O)(=O)CCNCc1ccc(-c2ccc3ncnc(Nc4ccc(OCc5cccc(F)c5)c(Cl)c4)c3c2)o1 [lapatinib]
How it was run: (§1)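 Following dounce homogenisation of K562 pellets in PBS pH 7.4 with 1 mM MgCl2, crude extract at 1 mg/mL protein was incubated for 30 min with 10 μM compound. Aliquots were then heated for 3 min over 48°C-58°C and pooled, NP-40 was added to 0.5% at 4°C, and soluble protein was recovered as the supernatant at 21,000xg for 90 min. Channel-sum-equalised TMTpro 16plex LC-MS/MS quantified this protein. Each value, from duplicates, is a log-two fold change in thermal stability relative to solvent controls.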

pictilisib = compound: CS(=O)(=O)N1CCN(Cc2cc3nc(-c4cccc5[nH]ncc45)nc(N4CCOCC4)c3s2)CC1 [pictilisib]
How it was run: as §1

crizotinib = compound: C[C@@H](Oc1cc(-c2cnn(C3CCNCC3)c2)cnc1N)c1c(Cl)ccc(F)c1Cl [crizotinib]
How it was run: as §1

[1] = compound: C[C@H](C1=CC=C(C=C1)C(=O)NC2=C3C=CNC3=NC=C2)N
How it was run: as §1

duvelisib = compound: C[C@H](Nc1ncnc2nc[nH]c12)c1cc2cccc(Cl)c2c(=O)n1-c1ccccc1 [duvelisib]
How it was run: as §1

gandotinib = compound: Cc1cc(Nc2cc(CN3CCOCC3)c3nc(C)c(Cc4ccc(Cl)cc4F)n3n2)n[nH]1 [gandotinib]
How it was run: as §1

tozasertib = compound: Cc1cc(Nc2cc(N3CCN(C)CC3)nc(Sc3ccc(NC(=O)C4CC4)cc3)n2)n[nH]1 [tozasertib]
How it was run: as §1

doramapimod = compound: Cc1ccc(-n2nc(C(C)(C)C)cc2NC(=O)Nc2ccc(OCCN3CCOCC3)c3ccccc23)cc1 [doramapimod]
How it was run: as §1

bafetinib = compound: Cc1ccc(NC(=O)c2ccc(CN3CC[C@H](N(C)C)C3)c(C(F)(F)F)c2)cc1Nc1nccc(-c2cncnc2)n1 [bafetinib]
How it was run: as §1

[2] = compound: Cc1cccc(CC(=O)N2CCc3c2ccc(-c2cn(C)c4ncnc(N)c24)c3F)n1
How it was run: as §1

Measured: log2 fold change

CHUK (UniProt O15111)
inactive: lapatinib 0.001 | pictilisib -0.031 | crizotinib -0.067 | [1] 0.112 | duvelisib 0.036 | gandotinib -0.067 | tozasertib 0.024 | doramapimod 0.008 | bafetinib -0.001 | [2] -0.048

CIC (UniProt I3L2J0)
inactive: lapatinib -0.074 | pictilisib -0.02 | crizotinib -0.002 | [1] -0.052 | duvelisib -0.047 | gandotinib 0.006 | tozasertib 0.02 | doramapimod -0.036 | bafetinib -0.08 | [2] 0.037

CHCHD7 isoform 4 (UniProt Q9BUK0)
inactive: lapatinib 0.079 | pictilisib 0.06 | crizotinib -0.052 | duvelisib -0.01 | gandotinib 0.266 | tozasertib -0.077 | doramapimod 0.026 | bafetinib -0.001 | [2] 0.187
active: [1] -0.382

CHCHD1 (UniProt Q96BP2)
inactive: lapatinib 0.025 | pictilisib 0.001 | crizotinib -0.069 | duvelisib 0.052 | gandotinib -0.314 | tozasertib -0.016 | doramapimod 0.039 | bafetinib 0.003
active: [1] 1.33 | [2] -0.35

CIZ1 (UniProt Q9ULV3)
inactive: lapatinib -0.027 | pictilisib -0.036 | crizotinib 0.03 | [1] -0.009 | duvelisib 0.01 | gandotinib 0.063 | tozasertib 0.044 | doramapimod -0.04 | bafetinib 0.008 | [2] 0.066

CIP2A (UniProt Q8TCG1)
inactive: lapatinib -0.02 | pictilisib -0.045 | crizotinib -0.101 | [1] -0.049 | duvelisib 0.012 | gandotinib -0.218 | tozasertib 0 | doramapimod 0.005 | bafetinib -0.047 | [2] 0.103

CIAO2A (UniProt Q9H5X1)
inactive: lapatinib 0.007 | pictilisib -0.058 | crizotinib -0.014 | [1] 0.181 | duvelisib -0.01 | gandotinib 0 | tozasertib 0.042 | doramapimod 0.11 | bafetinib -0.015
active: [2] -0.276

CHMP5 (UniProt Q9NZZ3)
inactive: lapatinib 0.011 | pictilisib 0 | crizotinib 0.021 | [1] -0.037 | duvelisib -0.023 | gandotinib 0.052 | tozasertib 0.037 | doramapimod 0.015 | bafetinib 0.01 | [2] 0.003

CIAO1 (UniProt O76071)
inactive: lapatinib 0.01 | pictilisib -0.062 | crizotinib -0.05 | [1] 0.003 | duvelisib 0.023 | gandotinib 0.024 | tozasertib 0.048 | doramapimod 0.086 | bafetinib -0.044 | [2] -0.019

CHD7 (UniProt Q9P2D1)
inactive: lapatinib -0.06 | pictilisib 0.023 | crizotinib -0.021 | [1] 0.069 | duvelisib 0.056 | gandotinib -0.113 | tozasertib 0.073 | doramapimod -0.029 | bafetinib -0.032 | [2] -0.036

CMPK1 (UniProt P30085)
inactive: lapatinib 0.024 | pictilisib 0.016 | crizotinib 0.005 | [1] -0.052 | duvelisib 0.031 | gandotinib 0.024 | tozasertib 0.002 | doramapimod 0.003 | bafetinib 0.013 | [2] 0.014

CHAF1A (UniProt Q13111)
inactive: lapatinib 0.014 | pictilisib 0.063 | crizotinib 0.012 | [1] -0.054 | duvelisib -0.035 | gandotinib 0.009 | tozasertib -0.023 | doramapimod 0.026 | bafetinib -0.075 | [2] -0.005

CMIP (UniProt Q8IY22)
inactive: lapatinib 0.002 | pictilisib -0.013 | crizotinib -0.001 | [1] 0.046 | duvelisib -0.035 | gandotinib -0.062 | tozasertib 0.017 | doramapimod -0.094 | bafetinib -0.064 | [2] 0.002

CMBL (UniProt Q96DG6)
inactive: lapatinib -0.024 | pictilisib 0.076 | crizotinib 0.065 | [1] -0.162 | duvelisib 0.031 | gandotinib 0.127 | tozasertib 0.016 | doramapimod -0.021 | bafetinib -0.028 | [2] -0.001

CIT isoform 4 (UniProt O14578)
inactive: lapatinib -0.055 | pictilisib -0.003 | crizotinib -0.01 | [1] 0.047 | duvelisib -0.02 | gandotinib -0.097 | tozasertib 0.028 | doramapimod 0.006 | bafetinib -0.023 | [2] 0.002

CMTR1 (UniProt Q8N1G2)
inactive: lapatinib -0.001 | pictilisib -0.014 | crizotinib -0.045 | [1] 0.008 | duvelisib -0.006 | gandotinib -0.072 | tozasertib 0.026 | doramapimod 0.034 | bafetinib -0.077 | [2] 0.04

CKAP4 (UniProt Q07065)
inactive: lapatinib -0.014 | pictilisib -0.021 | crizotinib 0.083 | [1] 0.353 | duvelisib 0.005 | gandotinib 0.224 | tozasertib -0.148 | doramapimod 0.061 | bafetinib 0.082 | [2] -0.68

CHMP3 (UniProt Q9Y3E7)
inactive: lapatinib 0.019 | pictilisib -0.018 | crizotinib -0.003 | [1] 0.01 | duvelisib 0.006 | gandotinib 0.059 | tozasertib 0 | doramapimod 0.017 | bafetinib 0.005 | [2] -0.002

CHMP2B (UniProt Q9UQN3)
inactive: lapatinib 0.016 | pictilisib 0.018 | crizotinib 0.074 | [1] -0.006 | duvelisib -0.011 | gandotinib 0.043 | tozasertib 0.005 | doramapimod -0.001 | bafetinib -0.019 | [2] -0.089

CHKA (UniProt P35790)
inactive: lapatinib -0.003 | pictilisib -0.04 | crizotinib -0.002 | [1] 0.032 | duvelisib -0.106 | gandotinib -0.14 | tozasertib -0.044 | doramapimod 0.001 | bafetinib 0.221 | [2] -0.024

CHAF1B (UniProt Q13112)
inactive: lapatinib -0.017 | pictilisib -0.011 | crizotinib -0.021 | [1] -0.071 | duvelisib 0.005 | gandotinib 0.074 | tozasertib 0.001 | doramapimod 0.037 | bafetinib -0.035 | [2] 0.021

CHMP1B (UniProt Q7LBR1)
inactive: lapatinib -0.054 | pictilisib -0.012 | crizotinib 0.037 | [1] 0.028 | duvelisib 0.05 | gandotinib -0.007 | tozasertib 0.012 | doramapimod 0.035 | bafetinib 0.069 | [2] -0.041

Two successive records out of the list so far:
CHKA (UniProt P35790)
inactive: lapatinib -0.003 | pictilisib -0.04 | crizotinib -0.002 | [1] 0.032 | duvelisib -0.106 | gandotinib -0.14 | tozasertib -0.044 | doramapimod 0.001 | bafetinib 0.221 | [2] -0.024

CHAF1B (UniProt Q13112)
inactive: lapatinib -0.017 | pictilisib -0.011 | crizotinib -0.021 | [1] -0.071 | duvelisib 0.005 | gandotinib 0.074 | tozasertib 0.001 | doramapimod 0.037 | bafetinib -0.035 | [2] 0.021

Next results:

CHMP4B (UniProt Q9H444)
inactive: lapatinib 0.047 | pictilisib 0.025 | crizotinib 0.132 | [1] 0.01 | duvelisib -0.023 | gandotinib 0.008 | tozasertib -0.002 | doramapimod 0 | bafetinib 0.026 | [2] -0.034

CHTOP isoform 3 (UniProt Q9Y3Y2)
inactive: lapatinib 0.023 | pictilisib 0.002 | crizotinib -0.017 | [1] 0.025 | duvelisib -0.403 | gandotinib 0.014 | tozasertib 0.046 | doramapimod -0.013 | bafetinib -0.02 | [2] 0.03

CHEK1 (UniProt O14757)
inactive: lapatinib -0.008 | pictilisib -0.003 | crizotinib -0.021 | [1] 0.174 | duvelisib -0.009 | gandotinib -0.014 | tozasertib 0.017 | doramapimod 0.04 | bafetinib -0.025 | [2] 0.015

CHEK2 (UniProt O96017)
inactive: lapatinib 0.08 | pictilisib -0.012 | crizotinib 0.069 | [1] -0.011 | duvelisib 0.002 | gandotinib -0.019 | tozasertib 0.039 | doramapimod 0.018 | bafetinib -0.046 | [2] -0.008

CHD5 (UniProt Q8TDI0)
inactive: lapatinib 0.028 | pictilisib 0.007 | crizotinib -0.03 | [1] 0 | duvelisib -0.056 | gandotinib 0.001 | tozasertib -0.074 | doramapimod 0.034 | bafetinib -0.042 | [2] -0.002
